Some of these results come from one statement about several compounds together.
target: novel receptor obtainable from rat forebrain tissue; experiment: Binding assay: displacement of [3H]-Compound A from rat forebrain tissue; details: competition with [3H]-Compound A (usually 20 nM), rat whole forebrain tissue, room temperature, 1 hour

pKi, > 7.5:
COc1ccc(C(=O)Nc2ccc3c(c2)C(C)N(C)CC3)cc1C(F)(F)F (racemic) [Example E53, (±) N-(1,2-Dimethyl-1,2,3,4-tetrahydroisoquinoline-7-yl)-4-methoxy-3-trifluoromethylbenzamide]
COc1ccc(C(=O)Nc2ccc3c(c2)C(c2ccccc2)N(C)CC3)cc1C(F)(F)F (racemic) [Example E54, (±) N-(1-Phenyl-2-methyl-1,2,3,4-tetrahydroisoquinolin-7-yl)-4-methoxy-3-trifluoromethylbenzamide]
COc1ccc(C(=O)Nc2ccc3c(c2)C(Cc2ccccc2)N(C)CC3)cc1C(F)(F)F (racemic) [Example E55, (±) N-(1-Benzyl-2-methyl-1,2,3,4-tetrahydroisoquinolin-7-yl)-4-methoxy-3-trifluoromethylbenzamide]
C=C(C)C1c2cc(NC(=O)c3ccc(OC)c(C(F)(F)F)c3)ccc2CCN1C (racemic) [Example E56, (±) N-(-1-iso-Propenyl-2-methyl-1,2,3,4-tetrahydroisoquinolin-7-yl)-4-methoxy-3-trifluoromethylbenzamide]
C=CCC1c2cc(NC(=O)c3ccc(OC)c(C(F)(F)F)c3)ccc2CCN1C (racemic) [Example E57, (±) N-(1-Allyl-2-methyl-1,2,3,4-tetrahydroisoquinolin-7-yl)-4-methoxy-3-trifluoromethylbenzamide]
COc1ccc(C(=O)Nc2ccc3c(c2)C(CC(C)C)N(C)CC3)cc1C(F)(F)F (racemic) [Example E58, (±) N-(1-iso-Butyl-2-methyl-1,2,3,4-tetrahydroisoquinolin-7-yl)-4-methoxy-3-trifluoromethylbenzamide]
C=C(C)C1c2cc(NC(=O)c3ccc(C(C)C)c(C#N)c3)ccc2CCN1C (racemic) [Example E59, (±) N-(1-iso-Propenyl-2-methyl-1,2,3,4-tetrahydroisoqiuinolin-7-yl)-3-cyano-4-iso-propylbenzamide]
C=C(C)C1c2cc(NC(=O)c3ccc(OC(C)C)c(C#N)c3)ccc2CCN1C (racemic) [Example E60, (±) N-(1-iso-Propenyl-2-methyl-1,2,3,4-tetrahydroisoquinolin-7-yl)-3-cyano4-iso-propoxybenzamide]
C=C(C)C1c2cc(NC(=O)c3ccc(OCC)c(Br)c3)ccc2CCN1C (racemic) [Example E61, (±) N-(1-iso-Propenyl-2-methyl-1,2,3,4-tetrahydroisoquinolin-7-yl)-3-bromo-4-ethoxybenzamide]
C=C(C)C1c2cc(NC(=O)c3ccc(CC)c(Br)c3)ccc2CCN1C (racemic) [Example E62, (±) N-(1-iso-Propenyl-2-methyl-1,2,3,4-tetrahydroisoquinolin-7-yl)-3-bromo-4-ethylbenzamide]
C=C(C)C1c2cc(NC(=O)c3ccc(OC(C)C)c(Cl)c3)ccc2CCN1C (racemic) [Example E63, (±) N-(1-iso-Propenyl-2-methyl-1,2,3,4-tetrahydroisoquinolin-7-yl)-3-chloro-4-iso-propoxybenzamide]
COc1ccc(C(=O)Nc2ccc3c(c2)C(C)N(C)CC3(C)C)cc1C(F)(F)F (racemic) [Example E79, (±) N-(1,2,4,4-Tetramethyl-1,2,3,4-tetrahydroisoquinolin-7-yl)4-methoxy-3-trifluoromethylbenzamide]
CC(C)Oc1ccc(C(=O)Nc2ccc3c(c2)C(C)N(C)CC3(C)C)cc1C#N (racemic) [Example E80, (±)N-(1,2,4,4-Tetramethyl-1,2,3,4-tetrahydroisoquinolin-7-yl)-3-cyano-4-iso-propoxybenzamide]
CC(C)c1ccc(C(=O)Nc2ccc3c(c2)C(C)N(C)CC3(C)C)cc1C#N (racemic) [Example E81, (±) N-(1,2,4,4-Tetramethyl-1,2,3,4-tetrahydroisoquinolin-7-yl)-3-cyano-4-iso-propylbenzamide]
CC(C)Oc1ccc(C(=O)Nc2ccc3c(c2)C(C)N(C)CC3(C)C)cc1Cl (racemic) [Example E82, (±)N-(1,2,4,4-Tetramethyl-1,2,3,4-tetrahydroisoquinolin-7-yl)-3-chloro-4-iso-propoxybenzamide]
CCOc1ccc(C(=O)Nc2ccc3c(c2)C(C)N(C)CC3(C)C)cc1Br (racemic) [Example E84, (±) N-(1,2,4,4-Tetramethyl-1,2,3,4-tetrahydroisoquinolin-7-yl)-3-bromo-4-ethoxybenzamide]
CC(C)Oc1ccc(C(=O)Nc2ccc3c(c2)CN(C(=O)C(F)(F)F)C(C)(C)C3)cc1Br [Example E5, N-(3,3-Dimethyl-1,2,3,4-tetrahydro-2-trifluoroacetylisoquinolin-7-yl)-3-bromo-4-iso-propyloxybenzamide]
CC(C)Oc1ccc(C(=O)Nc2ccc3c(c2)CN(C)CC3(C)C)cc1C#N [Example E11, N-(2,4,4-Trimethyl-1,2,3,4-tetrahydroisoquinolin-7-yl)-3-cyano-4-iso-propyloxybenzamide]
CC(C)Oc1ccc(C(=O)Nc2ccc3c(c2)CN(C)CC3(C)C)cc1Br [Example E12, N-(2,4,4-Trimethyl-1,2,3,4-tetrahydroisoquinolin-7-yl)-3-bromo-4-iso-propyloxybenzamide]
CC(=O)c1cc(C(=O)Nc2ccc3c(c2)CN(C)CC3(C)C)ccc1OC(C)C [Example E14, N-(2,4,4-Trimethyl-1,2,3,4-tetrahydroisoquinolin-7-yl)-3-acetyl-4-iso-propyloxybenzamide]
COc1ccc(C(=O)Nc2ccc3c(c2)CN(C)CC3(C)C)cc1Br [Example E15, N-(2,4,4-Trimethyl-1,2,3,4-tetrahydroisoquinolin-7-yl)-3-bromo-4-methoxybenzamide]
COc1ccc(C(=O)Nc2ccc3c(c2)CN(C)CC3(C)C)cc1Cl [Example E16, N-(2,4,4-Trimethyl-1,2,3,4-tetrahydroisoquinolin-7-yl)-3-chloro-4-methoxybenzamide]
COc1ccc(C(=O)Nc2ccc3c(c2)CN(C)CC3(C)C)cc1I [Example E17, N-(2,4,4-Trimethyl-1,2,3,4-tetrahydroisoquinolin-7-yl)-3-iodo-4-methoxybenzamide]
COc1ccc(C(=O)Nc2ccc3c(c2)CN(C)CC3(C)C)cc1F [Example E18, N-(2,4,4-Trimethyl-1,2,3,4-tetrahydroisoquinolin-7-yl)-3-fluoro-4-methoxybenzamide]
COc1ccc(C(=O)Nc2ccc3c(c2)CN(C)CC3(C)C)cc1C(F)(F)C(F)(F)F [Example E20, N-(2,4,4-Trimethyl-1,2,3,4-tetrahydroisoquinolin-7-yl)-4-methoxy-3-pentafluoroethylbenzamide]
CCOc1ccc(C(=O)Nc2ccc3c(c2)CN(C)CC3(C)C)cc1Cl [Example E21, N-(2,4,4-Trimethyl-1,2,3,4-tetrahydroisoquinolin-7-yl)-3-chloro-4-ethoxybenzamide]
CCOc1ccc(C(=O)Nc2ccc3c(c2)CN(C)CC3(C)C)cc1C#N [Example E22, N-(2,4,4-Trimethyl-1,2,3,4-tetrahydroisoquinolin-7-yl)-3-cyano-4-ethoxybenzamide]

— patent US6492378B1, “Substituted isoquinoline derivatives and their use as anticonvulsivants” (SmithKline Beecham p.l.c., priority 1998, dated 2002)
